Data as given in PubChem BioAssay AID1508588 (Peter MacCallum Cancer Centre, 2020).

Screen: 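Genome-wide search for knock-downs that heighten vemurafenib action in melanoma cells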 (primary screen)
Cell system: human WM266.4 melanoma cells (BRAF V600 mutant)
Reagents: siRNA pool against human genes, 40 nM
Duration: 96 h from transfection to read-out
Treatment: vemurafenib 300 nM (about IC25), added 48 h after transfection, for 48 h; comparison arm got DMSO vehicle only
Read-out: 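Ratios to non-targeting siRNA for cell gain, counted as DAPI nuclei after minus before drug and averaged over two replicates, and for absorbance-read medium lactate per cell; both binned into fold-change classes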
Direction: cell gain with vemurafenib: higher = more cell gain than with non-targeting siRNA; lactate per cell with vemurafenib: higher = more lactate made per cell
Hit rule: 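Enhancement is called by pairing each knock-down's vehicle-arm and drug-arm fold-change classes for viability or glycolysis; which class combinations qualify is not given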
Meaning of the calls: active = enhances vemurafenib effect; inactive = no enhancement seen
Here is a random part of about 18,000 deposited reagents. 790 of them (4.4%) count as active. 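Calls rest on a combination of fold-change classes in drug and vehicle arms, not all shown here.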 A number with no mark means an inactive call.

{"target": "COL19A1", "cell gain with vemurafenib": 0.65, "lactate per cell with vemurafenib": 0.76}
{"target": "TMED7", "cell gain with vemurafenib": 0.63, "lactate per cell with vemurafenib": 1.31}
{"target": "NAA11", "cell gain with vemurafenib": 0.55, "lactate per cell with vemurafenib": 1.04}
{"target": "TTC9C", "cell gain with vemurafenib": 0.48, "lactate per cell with vemurafenib": 1.4}
{"target": "RIT2", "cell gain with vemurafenib": 0.97, "lactate per cell with vemurafenib": 0.55}
{"target": "CCNG1", "cell gain with vemurafenib": 0.45, "lactate per cell with vemurafenib": 1.34}
{"target": "DDX39A", "cell gain with vemurafenib": 0.62, "lactate per cell with vemurafenib": 1.34}
{"target": "NOP14", "cell gain with vemurafenib": 0.53, "lactate per cell with vemurafenib": 1.36}
{"target": "MSH3", "cell gain with vemurafenib": "0.07 (active)", "lactate per cell with vemurafenib": 0.64}
{"target": "ERAS", "cell gain with vemurafenib": 1.28, "lactate per cell with vemurafenib": 0.86}
{"target": "TRIM74", "cell gain with vemurafenib": 0.84, "lactate per cell with vemurafenib": 0.82}
{"target": "TXNL4B", "cell gain with vemurafenib": 0.71, "lactate per cell with vemurafenib": 1.18}
{"target": "VAX1", "cell gain with vemurafenib": 0.87, "lactate per cell with vemurafenib": 1.1}
{"target": "SUV39H1", "cell gain with vemurafenib": 0.51, "lactate per cell with vemurafenib": 0.34}
{"target": "CTNNA2", "cell gain with vemurafenib": 0.58, "lactate per cell with vemurafenib": 1.42}
{"target": "TOX", "cell gain with vemurafenib": 0.22, "lactate per cell with vemurafenib": 2.12}
{"target": "COL20A1", "cell gain with vemurafenib": -0.25, "lactate per cell with vemurafenib": 2.74}
{"target": "TBC1D10A", "cell gain with vemurafenib": 0.68, "lactate per cell with vemurafenib": 0.96}
{"target": "RNF175", "cell gain with vemurafenib": 0.7, "lactate per cell with vemurafenib": 0.36}
{"target": "CRLF3", "cell gain with vemurafenib": 0.72, "lactate per cell with vemurafenib": 0.24}
{"target": "PLN", "cell gain with vemurafenib": 0.48, "lactate per cell with vemurafenib": 0.62}
{"target": "TTLL1", "cell gain with vemurafenib": 0.47, "lactate per cell with vemurafenib": 1.19}
{"target": "EMB", "cell gain with vemurafenib": 0.41, "lactate per cell with vemurafenib": 1.27}
{"target": "CPE", "cell gain with vemurafenib": 0.97, "lactate per cell with vemurafenib": 0.82}
{"target": "UBN1", "cell gain with vemurafenib": 0.73, "lactate per cell with vemurafenib": 0.96}
{"target": "PTCD1", "cell gain with vemurafenib": 1.29, "lactate per cell with vemurafenib": 0.56}
{"target": "SELENOT", "cell gain with vemurafenib": 0.18, "lactate per cell with vemurafenib": 1.16}

Entries listed above called active:
{"target": "MSH3", "cell gain with vemurafenib": "0.07 (active)", "lactate per cell with vemurafenib": 0.64}
